US20210206850A1 (ACCURUS BIOSCIENCES, published 2021)
Numbering of substitutions follows the chain as printed. These are yes or no findings as the source states them, for the method shown. Some binding calls cover weakened binding; strength is not graded here.

B1: D28S1 mouse anti-human CD47 hybridoma antibody (antibody, V domains shown)
VH: EVQLVESGGDLVKPGGSLKLSCAASGFTFTSYGMSWVRQTPDKRLEWVATINTGGSYTYYPDSVKGRFTISRDNAKNTLYLQMSSLKSEDTAMYYCARHTIKSLMDYWGQGTSVTVSS
VL: ETTVTQSPASLSMAIGEKVTIRCITSTDIDDDMNWYQQKPGEPPKLLISEGNTLRPGVPSRFSSSGYGTDFVFIIENMFSEDVADYYCLQSDNLPYTFGSGTKLEIK
notes: Mouse hybridoma IgG
B2: D36S4 mouse anti-human CD47 hybridoma antibody (antibody, V domains shown)
VH: EVKLEESGGGLVQPGGSMKLSCVASGFTFSRYWMNWVRQSPDKGLEWVAQIRLKSDNYETHYAESVKGRFTISRDDSKSSVYLQMNNLRAEDTGIYYCIEEGGYYVPFAYWGQGTLVTVSA
VL: DIVVSQSPSSLAVSAGEKVTMSCKSSQSLFKSRTRKNYLAWYQQRPGQSPKLLIYWASIRESGVPDRFTGSGSGTEFTLTISSVQAEDLAVYYCKQSYYLLTFGAGTKLELK
notes: Mouse hybridoma IgG
B3: D125S3 (antibody, V domains shown)
VH: EVQLVESGGDLVKPGGSLNLSCAASGFTFSDYGMSWVRQTPDMRLEWVATISKYGTYTSYPDSVKGRFTISRSNAKNTLYLQMSSLKSADTALYYCARRFFGNYNYWYFDVWGAGTTVTVSS
VL: DIVLTQSPASLAVSLGQRATFSCRASESVDEFGISYIHWYKKSPGQPPKLLIYRASTLESGISARFSGSGSGTDFTLTINPVETDDVATYYCQQSNQDPLTFGAGTKLELK
notes: Mouse hybridoma form; the mouse/human chimeric form with the same V regions is m18; also called D125S3 mouse anti-human CD47 hybridoma antibody
B4: D8S1 (antibody, V domains shown)
VH: EVQLQQSVAELVRPGASVKLSCTVSGFNIKNTYIYWVKQRPEQGLEWIGRIDPANGNTKDAPKFQGKATMTADTSSNTAYLQLSSLTSEDTAIYYCARGYGSGFAYWGQGTLVTVSA
VL: DIQMTQTTSSLSASLGDRVTISCRASQDISNHLNWYQQKPDGIVKLLIYYTSRLHSGVPSRFSGSGSGTDYSLTISNLEQEDIATYFCQQGSTLPFTFGSGTKLEIK
notes: Mouse hybridoma form; the mouse/human chimeric form with the same V regions is m13; also called D8S1 mouse anti-human CD47 hybridoma antibody
B5: D41S2 (antibody, V domains shown)
VH: B4 VH with V24P, K38R
VL: B4 VL with I43T
notes: Mouse hybridoma form; the mouse/human chimeric form with the same V regions is m16; also called D41S2 mouse anti-human CD47 hybridoma antibody
B6: D96S1 mouse anti-human CD47 hybridoma antibody (antibody, V domains shown)
VH: EVQLQQSGAELVKPGASVKLSCTASGFNIKDTYIHWVKQRPEQGLEWIGRIDPANGNIKSDPKFQGKATVTADTSSNTAYLQLSSLTSEDTAVYYCARSYGSSFASWGQGTLVTVSP
VL: B4 VL with I43A, L94F, F96Y, S100G
notes: Mouse hybridoma IgG

molecular target: His tagged cynomolgus monkey CD47 (cynomolgus monkey); assay: ELISA, plate coated with His tagged cynomolgus monkey CD47 at 2 ug/ml, goat anti-mouse IgG-HRP, OD450

| Binder | binding |
| --- | --- |
| B1 | binds |
| B2 | binds |
| B3 | binds |
| B4 | binds |
| B5 | binds |
| B6 | binds |
